Values from PubChem BioAssay AID1224830 (NIAID, 2016)

Screen: 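Host factors that control LPS-induced TNF expression in human macrophages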 (primary screen)
Cells: human THP-1 monocytic leukaemia cells, TNF dual-luciferase reporter clone, PMA-differentiated to macrophage-like cells
Reagents: siRNA pool against human genes, 50 nM
Duration: LPS for 4 h, given about 3 days after siRNA transfection
Challenge: bacterial LPS (TLR4 ligand), 10 ng/ml
Measured: 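Ratio of firefly to renilla light, scaled to the plate median and expressed as a robust z-score per replicate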
Direction: TNF reporter robust z-score: higher = stronger TNF reporter response to LPS
Hit rule: 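Each well counts as active if its z-score is over 2.8 or under -1.5; controls are left without a call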
The whole screen tested about 18,000 reagents; shown is a random part of them. About 2,900 of them (16%) were called active. 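Calls are made per well; low scores hint the gene aids the LPS response, high scores that it dampens it.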 A number with no mark means an inactive call. Repeated entries: four replicate wells of each siRNA pool.

gene	TNF reporter robust z-score
OR4D6	1.1
OR4D6	0.45
OR4D6	-0.12
OR4D6	1.24
NOL12	-0.41
NOL12	-0.73
NOL12	-0.14
NOL12	-0.55
ALMS1	-1.86 (active)
ALMS1	-1.6 (active)
ALMS1	-1.33
ALMS1	-1.55 (active)
ZBTB21	0.76
ZBTB21	-0.55
ZBTB21	0.14
ZBTB21	-0.79
SNX7	1.09
SNX7	0.55
SNX7	1.46
SNX7	0.59
RBM41	0.01
RBM41	0.67
RBM41	-0.1
METTL5	0.88
METTL5	1.69
METTL5	0.93
METTL5	1.54
SLIT2	0.32
SLIT2	-0.33
SLIT2	-0.05
SLIT2	1.29
CDK6	-0.58
CDK6	1.17
CDK6	-0.86
CDK6	0.65
SH2B2	0.7
SH2B2	0.92
SH2B2	1.45
SH2B2	1.79
TCF25	0.33
TCF25	-0.11
TCF25	1.13
TCF25	0.93
ORAI3	-1.12
ORAI3	-1
ORAI3	-1.44
ORAI3	-0.76
SLC26A8	-1
SLC26A8	-0.65
SLC26A8	-0.76
SLC26A8	-0.96
SLC26A11	-1.11
SLC26A11	-0.65
SLC26A11	-0.78
SLC26A11	-0.84
NLRX1	-0.77
NLRX1	-0.53
NLRX1	-0.78
NLRX1	-1.48
CDC42EP1	-0.72
CDC42EP1	-0.63
CDC42EP1	-0.3
CDC42EP1	-0.39
ETV5	-0.52
ETV5	-0.67
ETV5	0.33
ETV5	0.93
IFNA5	1.18
IFNA5	1.99
IFNA5	2.34
IFNA5	-0.38
USP6	0.59
USP6	2.05
USP6	0.33
USP6	1.28
